This passage reports binding result and Kd results from PMC12120766, “Paclitaxel/Luteolin Coloaded Dual‐Functional Liposomes for Esophageal Cancer Therapy”.

In data set [1] the target is T1, CTNNA1 (catenin alpha 1), native from KYSE-150 membrane (human (KYSE-150 cells)) (UniProt P35221).
T1 sequence (looked up, limits assumed): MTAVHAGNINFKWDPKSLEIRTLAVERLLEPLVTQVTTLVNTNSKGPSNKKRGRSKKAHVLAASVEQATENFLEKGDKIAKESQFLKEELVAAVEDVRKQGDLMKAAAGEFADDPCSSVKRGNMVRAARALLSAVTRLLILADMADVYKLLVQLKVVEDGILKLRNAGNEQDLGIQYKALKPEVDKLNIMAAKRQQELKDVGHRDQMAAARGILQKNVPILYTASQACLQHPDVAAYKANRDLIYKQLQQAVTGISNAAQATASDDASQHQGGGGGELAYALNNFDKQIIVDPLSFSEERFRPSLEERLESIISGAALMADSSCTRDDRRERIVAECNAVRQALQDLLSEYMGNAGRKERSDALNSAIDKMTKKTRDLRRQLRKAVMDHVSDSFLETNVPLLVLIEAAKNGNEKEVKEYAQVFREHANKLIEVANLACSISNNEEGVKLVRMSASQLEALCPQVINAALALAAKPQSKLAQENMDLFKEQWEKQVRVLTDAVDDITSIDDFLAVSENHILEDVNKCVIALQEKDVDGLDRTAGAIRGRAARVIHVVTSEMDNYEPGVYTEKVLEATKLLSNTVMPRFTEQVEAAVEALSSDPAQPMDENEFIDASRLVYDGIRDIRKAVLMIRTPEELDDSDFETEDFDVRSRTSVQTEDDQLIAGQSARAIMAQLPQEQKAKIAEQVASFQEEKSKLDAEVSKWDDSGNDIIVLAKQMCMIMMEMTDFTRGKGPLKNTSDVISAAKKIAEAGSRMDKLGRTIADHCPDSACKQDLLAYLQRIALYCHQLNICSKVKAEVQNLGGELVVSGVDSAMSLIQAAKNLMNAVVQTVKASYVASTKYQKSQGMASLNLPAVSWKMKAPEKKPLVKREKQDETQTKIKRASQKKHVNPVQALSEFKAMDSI
The experiment in a line: pull-down, SDS-PAGE and mass spectrometry. The conditions noted are these: protein in an extract; label: biotin; single-stranded DNA.

A further data set deals with T2, CTNNA1 (catenin alpha 1) (UniProt P35221).
T2 sequence (looked up, limits assumed): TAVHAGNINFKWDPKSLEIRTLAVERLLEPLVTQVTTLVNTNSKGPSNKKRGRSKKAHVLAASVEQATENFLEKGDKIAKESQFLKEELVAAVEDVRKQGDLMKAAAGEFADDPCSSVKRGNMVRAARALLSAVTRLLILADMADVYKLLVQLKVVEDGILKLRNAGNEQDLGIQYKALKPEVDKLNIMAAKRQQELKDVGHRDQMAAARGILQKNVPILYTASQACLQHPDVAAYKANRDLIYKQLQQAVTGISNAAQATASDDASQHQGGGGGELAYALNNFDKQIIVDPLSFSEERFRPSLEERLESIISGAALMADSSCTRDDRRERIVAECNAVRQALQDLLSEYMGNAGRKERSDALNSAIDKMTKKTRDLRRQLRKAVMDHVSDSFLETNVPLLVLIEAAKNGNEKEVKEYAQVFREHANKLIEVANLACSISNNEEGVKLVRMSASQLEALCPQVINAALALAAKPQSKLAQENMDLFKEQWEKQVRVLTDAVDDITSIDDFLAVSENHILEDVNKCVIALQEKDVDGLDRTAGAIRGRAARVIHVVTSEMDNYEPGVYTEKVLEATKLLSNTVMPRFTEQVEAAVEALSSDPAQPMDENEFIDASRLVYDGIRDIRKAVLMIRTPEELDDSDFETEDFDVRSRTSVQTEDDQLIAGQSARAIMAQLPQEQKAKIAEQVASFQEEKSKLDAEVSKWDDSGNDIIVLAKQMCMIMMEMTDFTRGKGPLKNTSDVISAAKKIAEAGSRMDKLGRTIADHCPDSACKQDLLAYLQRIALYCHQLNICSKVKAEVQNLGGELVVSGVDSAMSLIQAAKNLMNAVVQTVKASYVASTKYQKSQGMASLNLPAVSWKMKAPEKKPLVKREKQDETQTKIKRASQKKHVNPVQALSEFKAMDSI
As to the kind of experiment: MST. The conditions noted are these: CTNNA1 antibody competitor; MST: 50 nM labeled CTNNA1 in 10 mM PBS pH 7.4, EA2 0.00153-50 uM in 10 mM PBST (0.05% Tween-20) pH 7.4; temperature not stated; protein details: RED-NHS dye label; single-stranded DNA.

Broadly, the pKd is the Kd on a negative log10 scale, so that one unit is a factor of ten. High values mean a small Kd, low ones a large Kd.

pKd: −log10 of the molar value. For at least one entry, the source does not settle the construct or the ends of the probe. For some assays here: At least one result comes from cells or an extract, where the contact may be indirect. Where a protein sequence is shown, tags need not be part of it.

Take “AGCCTAAGCCTGTCCAGGAATCGTGCAGCCATAGCCTAAGCCTGTCCAGGAATCGATGGCTTAGTGGCACGATTAGGTC [EA2, biotinylated]”: the binding result in data set [1] is “binds”.

“AGCCTAAGCCTGTCCAGGAATCGTGCAGCCATAGCCTAAGCCTGTCCAGGAATCGATGGCTTAGTGGCACGATTAGGTC [EA2]” showed a pKd with CTNNA1 (catenin alpha 1) of 3.52.
